We go through 3 substances from patent publication US10130693B2, “Peptides, combination of peptides and scaffolds for use in immunotherapeutic treatment of various cancers” (Immatics Biotechnologies GmbH, priority 2015, dated 2018).

This data set can be described thus: Absolute quantitation of TUMAP copies per cell by nanoLC-MS/MS, isolation efficiency and DNA-based cell count. The settings on record: absolute peptide quantitation in tumor samples. On the set-up: species or system human.
As to “70 (GLFSQHFNL; listed as Homo sapiens) [compound 70]”, the “Copies per cell (median)” value is listed as “++ (>=100 = ++)”. Under “323 (ILSVVNSQL; listed as Homo sapiens) [compound 323]” stands “++ (>=100 = ++)”; under “325 (RLLPKVQEV; listed as Homo sapiens) [compound 325]”, “++ (>=100 = ++)”.
